In all, about 33,000 sequences were measured (“E-score (-0.5 to 0.5)”: median about -0.015, highest 2% from about 0.3 on). The list shows a part of the results.
Target: T1, Abf1 (UniProt P14164)
T1 sequence: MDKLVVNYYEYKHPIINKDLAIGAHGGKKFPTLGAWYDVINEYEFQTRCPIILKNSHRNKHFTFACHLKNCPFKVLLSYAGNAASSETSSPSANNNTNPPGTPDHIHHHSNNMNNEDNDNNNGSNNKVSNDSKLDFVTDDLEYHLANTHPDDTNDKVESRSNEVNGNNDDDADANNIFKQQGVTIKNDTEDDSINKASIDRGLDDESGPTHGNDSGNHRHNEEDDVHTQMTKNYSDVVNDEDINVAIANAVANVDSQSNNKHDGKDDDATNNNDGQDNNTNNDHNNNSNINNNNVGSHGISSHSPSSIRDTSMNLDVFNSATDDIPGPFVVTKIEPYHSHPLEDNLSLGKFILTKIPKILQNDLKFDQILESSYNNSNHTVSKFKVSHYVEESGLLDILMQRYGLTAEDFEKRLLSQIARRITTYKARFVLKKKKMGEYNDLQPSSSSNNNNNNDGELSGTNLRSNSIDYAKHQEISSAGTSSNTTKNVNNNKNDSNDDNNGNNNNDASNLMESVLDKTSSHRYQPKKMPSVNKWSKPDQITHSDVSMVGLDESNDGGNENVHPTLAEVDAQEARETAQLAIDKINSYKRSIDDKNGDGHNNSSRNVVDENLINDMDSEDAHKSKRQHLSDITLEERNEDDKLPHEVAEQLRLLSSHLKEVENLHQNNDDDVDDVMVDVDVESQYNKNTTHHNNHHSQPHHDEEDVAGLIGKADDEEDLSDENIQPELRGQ
Assay: PBM E-score (8-mer binding enrichment) (E-score (-0.5 to 0.5)); higher = stronger / more preferred TF binding
Details: protein concentration: 200 nM; construct: GST-full length
In short: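 Detection of bound protein used fluorescent anti-GST, with scans normalised by masliner. The proteins were GST-tagged yeast transcription factors applied at about 100-200 nM to universal all-10-mer Agilent arrays made double-stranded by primer extension. Each ungapped eight-base word, pooled with its reverse complement, was scored with an E-score from the Universal PBM Analysis Suite.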

Sequence | PBM E-score
ATGCTCCA | -0.08
GAATTCGC | 0.0899
CGACGCCG | 0.194
AAAAGAGG | -0.191
GACGTATC | 0.189
CAATCTCG | 0.0422
AAGGACGA | 0.14
TCCAACAA | 0.123
ACTAACAA | 0.00481
TAGTAGGA | -0.0503
CCGACCAC | -0.105
AGCGCAAT | -0.0482
AAATTACT | 0.146
CTGAATTA | 0.146
CTGCTAGC | -0.3
GAAAGTGA | 0.272
AACCAGAA | 0.0884
AGATCTTG | -0.123
AACTCTGA | 0.116
ACTAGGAC | -0.201
CTGCACTA | 0.0411
AGGCATAA | -0.151

Sequence | PBM E-score
CAATATAG | -0.0172
GGTTTAAA | 0.172
ACGTCGAA | 0.163
AAGTCCGT | 0.142
CAGAAAGC | -0.0494
ATGGTCGG | -0.132
AGTACCGC | -0.117
ATTGTCTG | -0.0522
GTGCACAA | 0.0931
ACTTTGTA | 0.0728
CGGCCTAC | -0.0261
ATCTACAC | 0.111
CCCGATAG | -0.2
CTTACTGA | -0.0877
CGTTATGC | 0.0121
CAATTCCA | -0.00098
ACAAAAAG | 0.225
CCCCTACC | -0.163
AGCCACAG | -0.103
CGATGCTC | -0.186
TAAACGGA | 0.133
TCACTGCA | 0.214

Sequence | PBM E-score
ATGCTGAC | -0.0732
ACAAGCAT | 0.115
GAAGTAGA | 0.0549
CGATACGA | 0.109
ATCATTTG | 0.276
GGGTAATA | -0.00728
AATAAGAT | 0.107
TGGGTACA | 0.0397
TAGCGTGA | 0.00907
ACTTTTAT | 0.0154
CGGCTCGC | -0.0178
CATTGAAG | -0.133
TTAGCGAA | 0.0503
GATATGTA | 0.152
CCCTACTA | -0.127
CAGCAAAC | -0.0634
GTTAGGAA | -0.133
TCCGGAAA | -0.0899
CGCACCCG | 0.034
TCGACGAA | 0.349
GCCAGCAC | -0.0263
TAGACGCA | 0.0635

Sequence | PBM E-score
ACTTAAAC | 0.129
CAACTACC | -0.0382
CGAGCGCA | 0.155
ATGCCCGC | -0.12
CACATGAG | -0.234
CCGGGCGC | -0.151
CATGAAAG | 0.0673
CATACGGA | 0.295
AGCGAGGA | -0.12
ATGTGTTC | -0.0352
GCTGCAAC | -0.0148
GCGCAAAC | 0.0443
AGGGCAAA | -0.143
AGGACGGA | -0.0392
GCATAATA | 0.192
AAGCAGGG | 0.00394
AAACCGAG | -0.0363
ATGACACG | 0.118
AGCGTCGC | -0.00567
CCGGGCGA | 0.0279

Some values from the results shown:
CGAGCGCA | PBM E-score: 0.155
AGGGCAAA | PBM E-score: -0.143
GCGCAAAC | PBM E-score: 0.0443
